The list shows only some results of the screen, not a fair sample: it is rich in T/C values a quarter to a half above the control, in often repeated tests (any T/C) and in doses without a T/C. Other doses and runs of a compound stand elsewhere. T/C is the treated group as % of the vehicle group. Some entries give survivors of the animals treated and no T/C: the source holds a T/C of zero for them, seemingly a mark for toxic or unscored doses. Some doses without a T/C left all or most animals alive at the check, yet need not have been tolerated: the source hardly ever lists a survival T/C far under the control, and the zero likely stands for such cases as well. Counts of survivors are from the toxicity check (mostly the fifth day) where no day follows; animals may have died later. Schedule codes are those of the source, read here as Q, the interval in days (D) or hours (H), X, the number of doses. Some entries hold several experiments; their values stand side by side, smallest first. For survival time, the PubChem record calls one and a half times the control and up active, and a quarter to a half above the control has no call in these data; cut-offs in other NCI protocols can differ. Some T/C values carry the count of animals alive at the toxicity check (mostly the fifth day); where none is given, no animal had died by that day.
System: CD2F1 mice, L1210 leukemia ip, survival T/C
Experiment: NCI In Vivo Anticancer Drug Screen. Data for tumor model L1210 Leukemia (intraperitoneal) in CD2F1 (CDF1) mice
Conditions: higher T/C = longer survival
Summary of the method: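 Each value reflects a quotient of treated over vehicle control outcomes in mice with a transplanted tumor.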

[1] = T/C endpoint: mean survival time, dose: 400.0 mg/kg/injection, schedule: Q04DX003 (ip), vehicle: saline with Tween-80
[2] = T/C endpoint: median survival time, dose: 400.0 mg/kg/injection, schedule: Q01DX005 (ip), vehicle: Klucel (hydroxypropylcellulose) (HPC)
[3] = T/C endpoint: mean survival time, dose: 100.0 mg/kg/injection, schedule: Q01DX009 (ip), vehicle: saline with Tween-80
[4] = T/C endpoint: mean survival time, dose: 400.0 mg/kg/injection, schedule: Q01DX009 (ip), vehicle: saline with Tween-80
[5] = T/C endpoint: mean survival time, dose: 25.0 mg/kg/injection, schedule: Q04DX003 (ip), vehicle: saline with Tween-80

COc1ccc(NC(=O)Nc2cccc(Cl)c2)c(Cl)c1
survivor count (T/C endpoint: mean survival time, dose: 100.0 mg/kg/injection, schedule: Q04DX002 (ip), vehicle: saline with Tween-80): 3 of 3 | survivor count (T/C endpoint: mean survival time, dose: 200.0 mg/kg/injection, schedule: Q04DX002 (ip), vehicle: saline with Tween-80): 3 of 3

c1ccc2c[n+]3ccccc3cc2c1
survivor count (T/C endpoint: mean survival time, dose: 50.0 mg/kg/injection, schedule: Q04DX003 (ip), vehicle: saline): 3 of 6

CCCCCC(C)(C)N=C=S
survivor count [1]: 0 of 6

COc1cccc2c1C(=O)c1c(O)c3c(c(O)c1C2=O)C[C@@](O)(/C(C)=N/NC(=O)c1cccc([N+](=O)[O-])c1)C[C@@H]3OC1CC(N)C(O)C(C)O1 (stereo not given in full)
T/C (T/C endpoint: mean survival time, dose: 8.0 mg/kg/injection, schedule: Q01DX009 (ip), vehicle: water): 126 % of control | survivor count (T/C endpoint: mean survival time, dose: 32.0 mg/kg/injection, schedule: Q01DX009 (ip), vehicle: water): 6 of 6

CNC(=S)SC1=NS(=O)(=O)c2ccccc2N1
T/C (T/C endpoint: median survival time, dose: 240.0 mg/kg/injection, schedule: Q01DX005 (ip), vehicle: Klucel (hydroxypropylcellulose) (HPC)): 127 % of control [4 of 6 alive] | T/C [2]: 132 % of control [5 of 6 alive] | survivor count [2]: 0 of 6 | survivor count (T/C endpoint: median survival time, dose: 666.67 mg/kg/injection, schedule: Q01DX005 (ip), vehicle: Klucel (hydroxypropylcellulose) (HPC)): 0 of 6 | survivor count (T/C endpoint: median survival time, dose: 1111.11 mg/kg/injection, schedule: Q01DX005 (ip), vehicle: Klucel (hydroxypropylcellulose) (HPC)): 0 of 6

c1coc(-c2nc3ccccc3s2)c1
survivor count (T/C endpoint: mean survival time, dose: 400.0 mg/kg/injection, schedule: Q01DX001 (ip), vehicle: Klucel (hydroxypropylcellulose) (HPC)): 0 of 3 and 0 of 6

C=C1C=CC1=O
survivor count (T/C endpoint: mean survival time, dose: 0.1 micrograms/kg/injection, schedule: Q01DX006 (ip), vehicle: other): 5 of 10 | survivor count (T/C endpoint: mean survival time, dose: 6.0 micrograms/kg/injection, schedule: Q01DX006 (ip), vehicle: other): 4 of 10 | survivor count (T/C endpoint: mean survival time, dose: 10.0 micrograms/kg/injection, schedule: Q01DX006 (ip), vehicle: other): 5 of 10 | survivor count (T/C endpoint: mean survival time, dose: 60.0 micrograms/kg/injection, schedule: Q01DX006 (ip), vehicle: other): 4 of 10 | survivor count (T/C endpoint: mean survival time, dose: 600.0 micrograms/kg/injection, schedule: Q01DX006 (ip), vehicle: other): 5 of 10 | survivor count (T/C endpoint: mean survival time, dose: 600.0 micrograms/kg/injection, schedule: Q01DX009 (ip), vehicle: other): 2 of 10 | survivor count (T/C endpoint: mean survival time, dose: 1000.0 micrograms/kg/injection, schedule: Q01DX006 (ip), vehicle: other): 3 of 10 | survivor count (T/C endpoint: mean survival time, dose: 1000.0 micrograms/kg/injection, schedule: Q01DX009 (ip), vehicle: other): 0 of 10

COc1ccc(OC)c(NC(=O)NNC(=O)CNC(=O)Nc2cccc(C)n2)c1
survivor count [3]: 6 of 6

CC(C)c1cc(O)ccc1N(C)C (tested in a mixture with another compound)
survivor count (T/C endpoint: mean survival time, dose: 0.5 mg/kg/injection, schedule: Q01DX001 (ip), vehicle: saline): 0 of 6 | survivor count (T/C endpoint: mean survival time, dose: 1.0 mg/kg/injection, schedule: Q01DX001 (ip), vehicle: saline): 0 of 6 | survivor count (T/C endpoint: mean survival time, dose: 2.0 mg/kg/injection, schedule: Q01DX001 (ip), vehicle: saline): 0 of 6 | survivor count (T/C endpoint: mean survival time, dose: 3.75 mg/kg/injection, schedule: Q01DX001 (ip), vehicle: saline): 0 of 6 | survivor count (T/C endpoint: mean survival time, dose: 7.5 mg/kg/injection, schedule: Q01DX001 (ip), vehicle: saline): 0 of 6 | survivor count (T/C endpoint: mean survival time, dose: 15.0 mg/kg/injection, schedule: Q01DX001 (ip), vehicle: saline): 0 of 6 | survivor count (T/C endpoint: mean survival time, dose: 18.8 mg/kg/injection, schedule: Q01DX001 (ip), vehicle: saline): 0 of 6 | survivor count (T/C endpoint: mean survival time, dose: 37.5 mg/kg/injection, schedule: Q01DX001 (ip), vehicle: saline): 0 of 6 | survivor count (T/C endpoint: mean survival time, dose: 75.0 mg/kg/injection, schedule: Q01DX001 (ip), vehicle: saline): 0 of 6 | survivor count (T/C endpoint: mean survival time, dose: 250.0 micrograms/kg/injection, schedule: Q01DX001 (ip), vehicle: saline): 1 of 6

Clc1ccc2c(CBr)ccnc2c1
survivor count (T/C endpoint: mean survival time, dose: 200.0 mg/kg/injection, schedule: Q04DX003 (ip), vehicle: other): 1 of 6

CN=C(N)N/N=C(\C)c1ccc2sc3ccc(/C(C)=N/NC(N)=NC)cc3c2c1
T/C (T/C endpoint: median survival time, dose: 50.0 mg/kg/injection, schedule: Q01DX009 (ip), vehicle: saline with Tween-80): 132 % of control | T/C (T/C endpoint: median survival time, dose: 100.0 mg/kg/injection, schedule: Q01DX009 (ip), vehicle: saline with Tween-80): 132 % of control | T/C (T/C endpoint: median survival time, dose: 200.0 mg/kg/injection, schedule: Q01DX009 (ip), vehicle: saline with Tween-80): 132 % of control

CC1CN1C(=O)Nc1cccc2c(NC(=O)N3CC3C)cccc12 (stereo not given)
T/C (T/C endpoint: mean survival time, dose: 18.7 mg/kg/injection, schedule: Q01DX009 (ip), vehicle: Klucel (hydroxypropylcellulose) (HPC)): 140 % of control

CC(=O)[O][Hg][c]1ccccc1
survivor count (T/C endpoint: mean survival time, dose: 50.0 mg/kg/injection, schedule: Q01DX001 (ip), vehicle: Klucel (hydroxypropylcellulose) (HPC)): 0 of 3 | survivor count (T/C endpoint: mean survival time, dose: 50.0 mg/kg/injection, schedule: Q01DX009 (ip), vehicle: saline with Tween-80): 3 of 6 | survivor count (T/C endpoint: mean survival time, dose: 100.0 mg/kg/injection, schedule: Q01DX001 (ip), vehicle: saline with Tween-80): 0 of 3 | survivor count [3]: 0 of 6 | survivor count (T/C endpoint: mean survival time, dose: 200.0 mg/kg/injection, schedule: Q01DX001 (ip), vehicle: saline with Tween-80): 0 of 3 | survivor count (T/C endpoint: mean survival time, dose: 200.0 mg/kg/injection, schedule: Q01DX009 (ip), vehicle: saline with Tween-80): 0 of 6 | survivor count (T/C endpoint: mean survival time, dose: 400.0 mg/kg/injection, schedule: Q01DX001 (ip), vehicle: saline with Tween-80): 0 of 3 | survivor count [4]: 0 of 6

CCCCC(CC)COP(OCC(CC)CCCC)OCC(CC)CCCC (stereo not given)
survivor count [4]: 2 of 6

N=C(N)c1ccc(N)cc1
survivor count (T/C endpoint: mean survival time, dose: 400.0 mg/kg/injection, schedule: Q04DX003 (ip), vehicle: saline): 1 of 6

CCCc1c(C)[nH]c2ccc(C)cc12
survivor count (T/C endpoint: mean survival time, dose: 200.0 mg/kg/injection, schedule: Q01DX009 (ip), vehicle: saline): 3 of 6 | survivor count [1]: 5 of 6

O=C(Nc1ccc(F)cc1)Nc1ccc(F)cc1
survivor count (T/C endpoint: mean survival time, dose: 400.0 mg/kg/injection, schedule: Q04DX002 (ip), vehicle: saline with Tween-80): 3 of 3

Clc1[nH]nc2ccccc12
survivor count [4]: 0 of 6

COc1ccc(-c2c(COC(C)=O)c(COC(C)=O)c3n2CCC3)cc1
survivor count (T/C endpoint: mean survival time, dose: 50.0 mg/kg/injection, schedule: Q01DX009 (ip), vehicle: Klucel (hydroxypropylcellulose) (HPC)): 6 of 6 | survivor count (T/C endpoint: mean survival time, dose: 100.0 mg/kg/injection, schedule: Q01DX009 (ip), vehicle: Klucel (hydroxypropylcellulose) (HPC)): 4 of 6 | survivor count (T/C endpoint: mean survival time, dose: 200.0 mg/kg/injection, schedule: Q01DX009 (ip), vehicle: Klucel (hydroxypropylcellulose) (HPC)): 2 of 6 | survivor count (T/C endpoint: mean survival time, dose: 400.0 mg/kg/injection, schedule: Q01DX009 (ip), vehicle: Klucel (hydroxypropylcellulose) (HPC)): 0 of 6

Cc1ccc(Sc2cccc3c(C)c4cccc5c4c(c23)C[S+]5c2ccc(C)cc2)cc1 (stereo not given)
survivor count (T/C endpoint: mean survival time, dose: 12.5 mg/kg/injection, schedule: Q04DX003 (ip), vehicle: saline with Tween-80): 3 of 6 | survivor count [5]: 3 of 6

CCC(/C=C/C1OC(=O)C=CC1C)=C\C(C)C/C=C/C(C)=C/C(C)C(=O)C(C)C(O)C(C)C/C(C)=C/C(=O)O (stereo not given)
T/C (T/C endpoint: median survival time, dose: 50.0 micrograms/kg/injection, schedule: Q01DX005 (ip), vehicle: saline + alcohol): 128 % of control | survivor count (T/C endpoint: median survival time, dose: 100.0 micrograms/kg/injection, schedule: Q01DX005 (ip), vehicle: saline + alcohol): 6 of 6 | T/C (T/C endpoint: median survival time, dose: 100.0 micrograms/kg/injection, schedule: Q01DX009 (ip), vehicle: saline + alcohol): 127 % of control | survivor count (T/C endpoint: median survival time, dose: 200.0 micrograms/kg/injection, schedule: Q01DX009 (ip), vehicle: saline + alcohol): 5 of 6

Nc1ccc(NC(=O)Nc2ccc(N)cc2)cc1
survivor count [5]: 2 of 6 | survivor count (T/C endpoint: mean survival time, dose: 50.0 mg/kg/injection, schedule: Q04DX003 (ip), vehicle: saline with Tween-80): 2 of 6 | survivor count (T/C endpoint: mean survival time, dose: 100.0 mg/kg/injection, schedule: Q04DX003 (ip), vehicle: saline with Tween-80): 2 of 6 | survivor count (T/C endpoint: mean survival time, dose: 200.0 mg/kg/injection, schedule: Q04DX003 (ip), vehicle: saline with Tween-80): 2 of 6 | survivor count [1]: 1 of 6

Reference: PubChem BioAssay AID256 (DTP/NCI, 2004)
